Source: US8791299B2, “Compounds for the inhibition of herpes viruses” (Universite Laval, priority 2009, dated 2014)
Some entries share one result that the patent states for a list of compounds.

Columns and labels:
[1] = system: Vero cells; assay: MTS cell proliferation (cytotoxicity) assay on Vero cells; conditions: 100 μM, incubation 3 days
Description: (§1) Human foreskin fibroblasts (HFFs) and African green monkey kidney cells (Vero) were grown in MEM supplemented with 10% fetal bovine serum. Cells were maintained at 37° C. in a humidified 5% CO2 atmosphere. Vero cells and HFFs were used for propagation of viral strains and susceptibility assays for HSV-1/HSV-2 and VZV/CMV, respectively. Clinical strains H25 (HSV-1), HSV22 (HSV-2) as well as laboratory strains KOS(HSV-1), Ellen (VZV) and AD169 (CMV) were used as wild-type susceptible reference isolates. Clinical strains C119629 (HSV-1), C114093 (HSV-1), C80249 (HSV-1), L920062 (HSV-1), MS2 (HSV-2), C75134 (HSV-2), W-940012 (HSV-2), C72984 (HSV-2), D-900180 (HSV-2), M-890546 (HSV-2), P-920056 (HSV-2) and GB2000VZV (VZV) as well as laboratory strains Xbaf (CMV) and VQA3 (CMV) were used as drug (ACV/GCV/FOS)— resistant isolates. All clinical strains starting with the letter C originated from the Quebec City clinical virology laboratory.
(§2) This assay is based on the use of solutions of a tetrazolium salt (3-(4,5-dimethylthiazol-2-yl)-5-(3-carboxymethoxyphenyl)-2-(4-sulphophenyl)-2H-tetrazolium, inner salt; MTS) and an electron coupling reagent (phenazine methosulfate; PMS). The tetrazolium salt is reduced by living cells to yield a formazan product that can be assayed colorimetrically. Briefly, HFFs and Vero cells were seeded in 96-well plates. After 24 h, media was aspirated and 100 μl of compounds diluted in MEM at concentrations up to 100 μM were added to wells in quaduplicate. After incubation at 37° C. for 3 days, 10 μl of a solution of MTS and PMS were added to each well. The plates were incubated at 37° C. for 2 h. The absorbance of the supernatant was read at a wavelength of 492 nm to measure cell viability compared to no-drug control wells. The drug concentration was plotted against the optical density of each sample and cellular toxicity (CC50) was calculated using GraphPad Prism version 5.0 (GraphPad Inc., La Jolla, Calif., USA).

[2] = system: Human foreskin fibroblasts (HFFs); assay: MTS cell proliferation (cytotoxicity) assay on HFFs; conditions: 100 μM, incubation 3 days
Description: as §1, §2

C=CCc1cccc(/C=N/NC(=O)CNC(=O)c2cccc(Cl)c2)c1O [Compound 3, 3-chloro-N-(2-{(2E)-2-[2-hydroxy-3-(prop-2-en-1-yl)benzylidene]hydrazinyl}-2-oxoethyl)benzamide]
toxicity at the highest concentration tested [1]: not toxic
toxicity at the highest concentration tested [2]: not toxic

O=[N+]([O-])c1ccc(Cl)c(N=Cc2c(O)ccc3ccccc23)c1 [Compound 5, 1-(2-chloro-5-nitrophenyliminomethyl)-2-naphthol]
toxicity at the highest concentration tested [1]: not toxic
toxicity at the highest concentration tested [2]: not toxic

Cn1nnc(NC(=S)NC(=O)c2cccs2)n1 [Compound 8, N-{[(2-methyl-2H-tetrazol-5-yl)amino]carbonothioyl}-2-thiophenecarboxamide]
toxicity at the highest concentration tested [1]: not toxic
toxicity at the highest concentration tested [2]: not toxic

O=C(Nc1nnn[nH]1)c1ccc(-c2ccccc2)cc1 [Compound 6, N-1H-tetrazol-5-yl-4-biphenylcarboxamide]
toxicity at the highest concentration tested [1]: not toxic
toxicity at the highest concentration tested [2]: not toxic

COc1ccc(O)c(C=NNC(=O)CNC(=O)c2cccc(C)c2)c1 [Compound 1, N-(2-(2-(2-hydroxy-5-methoxybenzylidene)hydrazino)-2-oxoethyl)-3-methyl-benzamide]
toxicity at the highest concentration tested [1]: not toxic
toxicity at the highest concentration tested [2]: not toxic

COc1ccc(CCNC(=O)CSc2nnnn2-c2ccccc2)cc1 [Compound 4, N-[2-(4-methoxyphenyl)ethyl]-2-[(1-phenyl-1H-tetrazol-5-yl)thio]acetamide]
toxicity at the highest concentration tested [1]: not toxic
toxicity at the highest concentration tested [2]: not toxic

O=C(CNC(=O)c1cccc2ccccc12)N/N=C/c1ccccc1O [Compound 2, N-{2-[(2E)-2-(2-hydroxybenzylidene)hydrazinyl]-2-oxoethyl}naphthalene-1-carboxamide]
toxicity at the highest concentration tested [1]: not toxic
toxicity at the highest concentration tested [2]: not toxic
